Data taken from paper PMC6614801.
Results are given in words; binding and its absence hold for the method and conditions named. Some results given as binding are weak or reduced against the parent protein; the word gives no strength.

Experiments:
[1] = biological target: T1, SuhB (inositol mono-phosphatase SuhB), wild type (E. coli), P0ADG4; assay: crystal structure; SuhB-NusA^AR2 complex, 1.65 Å; two SuhB molecules and one NusA^AR2 in the asymmetric unit; both purified; conditions: remark: other sources report otherwise
T1 chain: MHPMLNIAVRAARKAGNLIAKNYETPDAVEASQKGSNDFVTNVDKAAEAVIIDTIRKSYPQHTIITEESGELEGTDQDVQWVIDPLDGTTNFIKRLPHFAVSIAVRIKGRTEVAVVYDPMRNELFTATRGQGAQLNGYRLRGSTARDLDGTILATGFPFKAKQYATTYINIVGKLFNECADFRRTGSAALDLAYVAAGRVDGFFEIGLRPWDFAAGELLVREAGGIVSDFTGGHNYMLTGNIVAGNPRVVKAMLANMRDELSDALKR

[2] = biological target: T1, SuhB (inositol mono-phosphatase SuhB), …; assay: crystal structure; isolated wt SuhB, 2.25 Å; one monomer in the asymmetric unit, dimer by crystal symmetry; both purified; conditions: remark: other sources report otherwise

binding [1]: binds
binding [2]: binds
B1: SuhB (inositol mono-phosphatase SuhB), wild type, P0ADG4 1-267 (natural protein)
chain: T1 chain
